{"source": "the supplement of paper PMC7877785", "assay": "self-splicing fitness, log relative to wild type (ln ratio); higher = more splicing; Tetrahymena group I intron in knt gene, E. coli kanamycin selection, DiMSum; sequences stand for … in CUCUCU…GGAGGGAAAAGUUAUCAGGCAUGCACCUGGUAGCUAGUCUUUAAACCAAUAGAUUGCAUCGGUUUAAAAGGCAAGACCGUCAAAUUGCGGGAAAGGGGUCAACAGCCGUUCAGUACCAAGUCUCAGGGGAAACUUUGAGAUGGCCUUGCAAAGGGUAUGGUAAUAAGCUGACGGACAUGGUCCUAACCACGCAGCCAAGUCCUAAGUCAACAGAUCUUCUGUUGAUAUGGAUGCAGUUCACAGACUAAAUGUCGGUCGGGGAAGAUGUAUUCUUCUCAUAAGAUAUAGUCGGACCUCUCCUUAAUGGGAGCUAGCGGAUGAAGUGAUGCAACACUGGAGCCGCUGGGAACUAAUUUGUAUGCGAAAGUAUAUUGAUUAGUUUUGGAGUACUCGUGGUCG", "outline": "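Fitness was computed with DiMSum as the error-weighted combination of replicate fold changes, kanamycin versus none, each normalised to wild type. The library randomised all eight intron nucleotides of the P1ex region, with the intron placed in the knt kanamycin-resistance gene on pET-22b(+) in E. coli BL21(DE3). Six replicate transformations were grown overnight at 37°C or 30°C on LB agar with or without 25 μg/mL kanamycin, plus 100 μg/mL carbenicillin, 50 μM IPTG and 0.2% rhamnose. Pooled colonies were amplicon-sequenced on an Illumina HiSeq 2500.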", "note": "± gives the uncertainty stated by the source. Many of these values have a large error.", "data": [{"sequence": "CUUUAGCAAUAUUACGUACC", "values": [{"measurement": "self-splicing fitness (ln)", "setting": "30 °C", "value": "-2.79 ± 0.56"}]}, {"sequence": "UAUGAGCAAUAUUACGUAUC", "values": [{"measurement": "self-splicing fitness (ln)", "setting": "30 °C", "value": "-3.96 ± 0.73"}, {"measurement": "self-splicing fitness (ln)", "setting": "37 °C", "value": "-1.29 ± 0.71"}]}, {"sequence": "CCCAAGCAAUAUUACGAACC", "values": [{"measurement": "self-splicing fitness (ln)", "setting": "30 °C", "value": "-2.18 ± 0.84"}]}, {"sequence": "UGCGAGCAAUAUUACGGACU", "values": [{"measurement": "self-splicing fitness (ln)", "setting": "30 °C", "value": "-2.82 ± 0.6"}]}, {"sequence": "GGUGAGCAAUAUUACGCCAC", "values": [{"measurement": "self-splicing fitness (ln)", "setting": "37 °C", "value": "-3.12 ± 1"}]}, {"sequence": "UAAUAGCAAUAUUACGUCUC", "values": [{"measurement": "self-splicing fitness (ln)", "setting": "37 °C", "value": "-1.95 ± 0.51"}]}, {"sequence": "GAGCAGCAAUAUUACGUUGG", "values": [{"measurement": "self-splicing fitness (ln)", "setting": "30 °C", "value": "-0.945 ± 0.19"}, {"measurement": "self-splicing fitness (ln)", "setting": "37 °C", "value": "-2.43 ± 0.23"}]}, {"sequence": "UAGGAGCAAUAUUACGAUUC", "values": [{"measurement": "self-splicing fitness (ln)", "setting": "37 °C", "value": "-1 ± 0.51"}]}, {"sequence": "CUCAAGCAAUAUUACGAUAC", "values": [{"measurement": "self-splicing fitness (ln)", "setting": "37 °C", "value": "-2.02 ± 0.56"}]}, {"sequence": "AUAUAGCAAUAUUACGAUCA", "values": [{"measurement": "self-splicing fitness (ln)", "setting": "30 °C", "value": "-1.4 ± 0.16"}, {"measurement": "self-splicing fitness (ln)", "setting": "37 °C", "value": "-0.365 ± 0.22"}]}, {"sequence": "CAUGAGCAAUAUUACGCCAA", "values": [{"measurement": "self-splicing fitness (ln)", "setting": "30 °C", "value": "-3.67 ± 0.41"}, {"measurement": "self-splicing fitness (ln)", "setting": "37 °C", "value": "-2.53 ± 0.36"}]}, {"sequence": "GGAUAGCAAUAUUACGGUCC", "values": [{"measurement": "self-splicing fitness (ln)", "setting": "30 °C", "value": "-2.78 ± 0.51"}]}, {"sequence": "CGGAAGCAAUAUUACGGACC", "values": [{"measurement": "self-splicing fitness (ln)", "setting": "37 °C", "value": "1.71 ± 0.74"}]}, {"sequence": "GCUGAGCAAUAUUACGCCGC", "values": [{"measurement": "self-splicing fitness (ln)", "setting": "37 °C", "value": "-2.56 ± 0.75"}]}, {"sequence": "AGAAAGCAAUAUUACGGACA", "values": [{"measurement": "self-splicing fitness (ln)", "setting": "30 °C", "value": "-0.632 ± 0.2"}, {"measurement": "self-splicing fitness (ln)", "setting": "37 °C", "value": "-0.869 ± 0.29"}]}, {"sequence": "UGCGAGCAAUAUUACGCUAU", "values": [{"measurement": "self-splicing fitness (ln)", "setting": "30 °C", "value": "-4.54 ± 1"}]}, {"sequence": "CCGGAGCAAUAUUACGUCCG", "values": [{"measurement": "self-splicing fitness (ln)", "setting": "37 °C", "value": "-3.74 ± 1"}]}, {"sequence": "CAAGAGCAAUAUUACGUAUA", "values": [{"measurement": "self-splicing fitness (ln)", "setting": "30 °C", "value": "-4.95 ± 0.3"}, {"measurement": "self-splicing fitness (ln)", "setting": "37 °C", "value": "-1.92 ± 0.15"}]}, {"sequence": "GGAGAGCAAUAUUACGUUGU", "values": [{"measurement": "self-splicing fitness (ln)", "setting": "30 °C", "value": "-4.01 ± 0.19"}, {"measurement": "self-splicing fitness (ln)", "setting": "37 °C", "value": "-3.77 ± 0.24"}]}, {"sequence": "UGUCAGCAAUAUUACGUUGC", "values": [{"measurement": "self-splicing fitness (ln)", "setting": "30 °C", "value": "-3.38 ± 0.61"}]}, {"sequence": "UCGCAGCAAUAUUACGAUCC", "values": [{"measurement": "self-splicing fitness (ln)", "setting": "30 °C", "value": "-2.47 ± 0.54"}]}, {"sequence": "AACCAGCAAUAUUACGGGGU", "values": [{"measurement": "self-splicing fitness (ln)", "setting": "30 °C", "value": "-3.73 ± 0.14"}, {"measurement": "self-splicing fitness (ln)", "setting": "37 °C", "value": "-2.88 ± 0.16"}]}, {"sequence": "UCUGAGCAAUAUUACGAGGU", "values": [{"measurement": "self-splicing fitness (ln)", "setting": "37 °C", "value": "-3.76 ± 0.59"}]}, {"sequence": "AUUGAGCAAUAUUACGAGCA", "values": [{"measurement": "self-splicing fitness (ln)", "setting": "30 °C", "value": "-3.01 ± 0.47"}, {"measurement": "self-splicing fitness (ln)", "setting": "37 °C", "value": "-1.93 ± 0.42"}]}, {"sequence": "GAUUAGCAAUAUUACGCCCU", "values": [{"measurement": "self-splicing fitness (ln)", "setting": "37 °C", "value": "-0.471 ± 0.64"}]}, {"sequence": "CGGGAGCAAUAUUACGGCCG", "values": [{"measurement": "self-splicing fitness (ln)", "setting": "37 °C", "value": "-3.32 ± 0.74"}]}, {"sequence": "UCGGAGCAAUAUUACGAGGC", "values": [{"measurement": "self-splicing fitness (ln)", "setting": "30 °C", "value": "-2.74 ± 0.42"}, {"measurement": "self-splicing fitness (ln)", "setting": "37 °C", "value": "-2.93 ± 0.75"}]}, {"sequence": "CUGAAGCAAUAUUACGGCGA", "values": [{"measurement": "self-splicing fitness (ln)", "setting": "37 °C", "value": "-2.8 ± 0.6"}]}, {"sequence": "CGCAAGCAAUAUUACGCAAU", "values": [{"measurement": "self-splicing fitness (ln)", "setting": "30 °C", "value": "-2.94 ± 0.21"}, {"measurement": "self-splicing fitness (ln)", "setting": "37 °C", "value": "-2.14 ± 0.26"}]}, {"sequence": "UGAUAGCAAUAUUACGAAGC", "values": [{"measurement": "self-splicing fitness (ln)", "setting": "37 °C", "value": "-3.43 ± 0.6"}]}, {"sequence": "UUCGAGCAAUAUUACGCAAU", "values": [{"measurement": "self-splicing fitness (ln)", "setting": "30 °C", "value": "-2.93 ± 0.63"}]}, {"sequence": "GACAAGCAAUAUUACGCAGC", "values": [{"measurement": "self-splicing fitness (ln)", "setting": "30 °C", "value": "-4.28 ± 0.52"}]}, {"sequence": "CGAGAGCAAUAUUACGUCGU", "values": [{"measurement": "self-splicing fitness (ln)", "setting": "30 °C", "value": "-4.44 ± 0.59"}]}, {"sequence": "CAUUAGCAAUAUUACGAUGC", "values": [{"measurement": "self-splicing fitness (ln)", "setting": "30 °C", "value": "-4.85 ± 0.59"}]}, {"sequence": "UAGCAGCAAUAUUACGGGUC", "values": [{"measurement": "self-splicing fitness (ln)", "setting": "30 °C", "value": "-5.23 ± 0.72"}]}, {"sequence": "UUGGAGCAAUAUUACGUUCU", "values": [{"measurement": "self-splicing fitness (ln)", "setting": "30 °C", "value": "-4.43 ± 0.6"}]}, {"sequence": "UCCCAGCAAUAUUACGCACC", "values": [{"measurement": "self-splicing fitness (ln)", "setting": "30 °C", "value": "-4.46 ± 1"}]}, {"sequence": "GUUGAGCAAUAUUACGCGCC", "values": [{"measurement": "self-splicing fitness (ln)", "setting": "37 °C", "value": "-1.29 ± 0.69"}]}, {"sequence": "CUUGAGCAAUAUUACGUGGC", "values": [{"measurement": "self-splicing fitness (ln)", "setting": "30 °C", "value": "-4.95 ± 0.59"}]}, {"sequence": "CUUGAGCAAUAUUACGUACC", "values": [{"measurement": "self-splicing fitness (ln)", "setting": "30 °C", "value": "-2.93 ± 1.1"}, {"measurement": "self-splicing fitness (ln)", "setting": "37 °C", "value": "-1.39 ± 0.9"}]}, {"sequence": "GCCGAGCAAUAUUACGCAAA", "values": [{"measurement": "self-splicing fitness (ln)", "setting": "30 °C", "value": "-2.02 ± 1.2"}]}, {"sequence": "GUUGAGCAAUAUUACGACCA", "values": [{"measurement": "self-splicing fitness (ln)", "setting": "37 °C", "value": "-1.4 ± 0.81"}]}, {"sequence": "CAAUAGCAAUAUUACGCCCA", "values": [{"measurement": "self-splicing fitness (ln)", "setting": "37 °C", "value": "-1.34 ± 0.54"}]}, {"sequence": "AUAGAGCAAUAUUACGUGAU", "values": [{"measurement": "self-splicing fitness (ln)", "setting": "30 °C", "value": "-2.02 ± 0.12"}, {"measurement": "self-splicing fitness (ln)", "setting": "37 °C", "value": "-0.825 ± 0.17"}]}, {"sequence": "UCGCAGCAAUAUUACGUCUC", "values": [{"measurement": "self-splicing fitness (ln)", "setting": "30 °C", "value": "-4.83 ± 0.72"}]}, {"sequence": "GUAGAGCAAUAUUACGCCAC", "values": [{"measurement": "self-splicing fitness (ln)", "setting": "37 °C", "value": "-3.64 ± 1"}]}, {"sequence": "GGGGAGCAAUAUUACGUCAC", "values": [{"measurement": "self-splicing fitness (ln)", "setting": "30 °C", "value": "-2.79 ± 1.2"}]}, {"sequence": "GAAGAGCAAUAUUACGAGAA", "values": [{"measurement": "self-splicing fitness (ln)", "setting": "30 °C", "value": "-2.21 ± 0.79"}, {"measurement": "self-splicing fitness (ln)", "setting": "37 °C", "value": "-1.67 ± 0.68"}]}, {"sequence": "CACUAGCAAUAUUACGGCAG", "values": [{"measurement": "self-splicing fitness (ln)", "setting": "30 °C", "value": "-0.257 ± 0.049"}, {"measurement": "self-splicing fitness (ln)", "setting": "37 °C", "value": "0.189 ± 0.066"}]}, {"sequence": "CAUUAGCAAUAUUACGAAAC", "values": [{"measurement": "self-splicing fitness (ln)", "setting": "30 °C", "value": "-3.7 ± 0.61"}, {"measurement": "self-splicing fitness (ln)", "setting": "37 °C", "value": "-1.04 ± 0.51"}]}, {"sequence": "CUGUAGCAAUAUUACGUUCC", "values": [{"measurement": "self-splicing fitness (ln)", "setting": "30 °C", "value": "-4.43 ± 0.59"}, {"measurement": "self-splicing fitness (ln)", "setting": "37 °C", "value": "-2.72 ± 1.1"}]}]}
